Measurements taken from paper PMC2696103.

Target: T1, GST-HMP-2 (C. elegans β-catenin homolog HMP-2 fused to GST) (C. elegans) (UniProt O44326)
T1 sequence: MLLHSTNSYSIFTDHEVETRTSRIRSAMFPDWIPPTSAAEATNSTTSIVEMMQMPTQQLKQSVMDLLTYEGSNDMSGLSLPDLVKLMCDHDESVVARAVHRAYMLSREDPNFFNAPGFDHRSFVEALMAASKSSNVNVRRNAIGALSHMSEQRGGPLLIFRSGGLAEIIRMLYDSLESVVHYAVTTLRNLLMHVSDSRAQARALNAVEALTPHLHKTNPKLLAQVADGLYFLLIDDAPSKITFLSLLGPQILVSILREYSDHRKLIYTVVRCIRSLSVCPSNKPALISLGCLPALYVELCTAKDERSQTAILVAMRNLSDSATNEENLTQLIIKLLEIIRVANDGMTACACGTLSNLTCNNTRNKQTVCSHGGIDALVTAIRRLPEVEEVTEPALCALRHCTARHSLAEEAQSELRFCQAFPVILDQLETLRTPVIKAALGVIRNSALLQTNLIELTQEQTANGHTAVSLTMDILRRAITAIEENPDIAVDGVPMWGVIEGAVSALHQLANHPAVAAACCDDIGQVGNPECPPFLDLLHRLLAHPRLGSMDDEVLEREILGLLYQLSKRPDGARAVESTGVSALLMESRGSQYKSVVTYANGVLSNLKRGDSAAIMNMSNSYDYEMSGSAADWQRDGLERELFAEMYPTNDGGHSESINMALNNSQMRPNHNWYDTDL
Test: pull-down; GST-fusion proteins on glutathione sepharose incubated with total worm protein extracts (lysis buffer: 50 mM Tris-HCl pH 7.4, 1% Triton-X 100, 10% glycerol, 150 mM NaCl, 1 mM NaF, 1 mM Na-orthovanadate, protease inhibitors); bound MAGI-1::GFP detected on Western blots with anti-GFP; only the target purified

binding	Substance
binds	Full-length MAGI-1::GFP (long isoform of C. elegans MAGI-1 fused to GFP)
binds	MAGI-1ΔPDZ1-3::GFP (deletion mutant of MAGI-1 lacking PDZ1-3) (C. elegans)

No constants are given. Whether binding was seen depends on the method and setting. Binding seen in cells or lysates may run through a third protein. A result given as binding can be weak or reduced; the word gives no strength. Sequences can lack the tags named with a protein.
